Tested on: PDGFAA stimulated AKT phosphorylation
Assay: In cell Western, PDGFAA stimulated AKT phosphorylation in human fetal lung fibroblasts
Type: cell-based
Description: HLFs were maintained in subculture at no more than 6 passages in DMEM with 5% FBS and 4 mM Glutamax at 37° C., 5% CO2. HLFs were plated and grown to 70-80% confluence in 96 well plates then serum-starved for 48 hours. […] Cells were fixed in 3.7% formaldehyde, washed with 0.1% Triton X-100, and treated with Odyssey Blocking Buffer for 90 min. Proteins were incubated overnight 1:100 diluted rabbit mAb to phosphorylated AKT (Ser 473 or Thr 308) and 1:100 mouse mAb to total Akt-pan-4040D. Antibodies were detected using IRDye 680LT goat anti-mouse IgG and IRDye 800 W goat α-rabbit IgG conjugated antibodies. After washing, the signal was quantified using an Odyssey Infrared Imaging System (LI-COR). Phosphoprotein signal (800 nm) was normalized to total protein signal (700 nm) acquired from each well and experimental duplicates on same plate were averaged and reported.

Cc1ccc(NC(=O)c2ccc(CN3CCN(C)CC3)cc2)cc1Nc1nccc(-c2cccnc2)n1 [Imatinib, reference compound]
IC50 for PDGFAA stimulated phosphorylation of AKT, PK10453 compared with imatinib: not significantly different

Source: patent US20180193336A1, “SPRAY DRY FORMULATIONS” (Pulmokine, Inc., priority 2013, published 2018)
